“And” between values parts separate entries of the source, which are not always exact repeats. Identical values can stand only once. Screen size: about 78,000 compounds; about 1,800 (2.3%) were called active. Inconclusive means that the source gave no clear call. Such entries were picked first, then a sample of the others. Cut-off read from the data, not from the text of the source: active = inhibition above about 30%; inconclusive = mostly about 10% to 28%; inactive = weaker than that.
What follows are compounds tested against Interleukin-1 receptor-like 1 (Homo sapiens) (UniProt Q01638) (assay: blocks human ST2 binding to IL-33, primary screen, biochemical, AlphaLISA (AID 1259354)). Conditions: AlphaLISA ST2-Fc/biotin-IL-33 interaction, 1 h; at 17 µM, stronger effect = higher value.

Protein sequences, listed by entry. Tags and fused reporters are not part of them. Lines headed by an entry give the natural chain unless they say otherwise; changes in a name come on top.
UniProt Q01638: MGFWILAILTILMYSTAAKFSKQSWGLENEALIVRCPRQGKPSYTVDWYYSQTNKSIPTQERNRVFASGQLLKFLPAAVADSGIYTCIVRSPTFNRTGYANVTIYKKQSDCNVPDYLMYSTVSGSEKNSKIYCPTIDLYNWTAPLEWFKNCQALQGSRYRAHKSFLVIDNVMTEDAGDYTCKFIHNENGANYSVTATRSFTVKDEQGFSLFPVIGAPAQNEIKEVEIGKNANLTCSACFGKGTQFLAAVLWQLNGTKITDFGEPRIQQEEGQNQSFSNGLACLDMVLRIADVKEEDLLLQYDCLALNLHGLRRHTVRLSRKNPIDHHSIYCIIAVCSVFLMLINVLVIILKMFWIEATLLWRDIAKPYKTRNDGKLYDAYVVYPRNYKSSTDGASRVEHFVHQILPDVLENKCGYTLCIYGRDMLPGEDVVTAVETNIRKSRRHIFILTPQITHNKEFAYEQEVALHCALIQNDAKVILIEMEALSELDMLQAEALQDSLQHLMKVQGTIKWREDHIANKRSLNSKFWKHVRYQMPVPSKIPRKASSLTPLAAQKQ

Row | SMILES | inhibition
1 | CCCC(=O)Nc1cccc(C(=O)NC(C)Cc2cnccn2)c1 (configuration not stated) | inconclusive: 23%
2 | O=C(CN1C(=O)/C(=C\c2cccc(Cl)c2)Sc2ccccc21)NCc1ccccn1 | inconclusive: 16%
3 | CN(CCC1CCCCO1)C(=O)c1cn(C/C=C/c2ccccc2)nn1 (configuration not stated) | inactive
4 | CC(C)c1noc([C@@H]2C[C@@H](O)CN2Cc2cc3ccccc3o2)n1 | active: 38%
5 | CCN(Cc1c(C)nn(CC)c1C)Cc1c(C)n(C)n(-c2ccccc2)c1=O | inconclusive: 17%
6 | CC(=O)c1ccc(NC(=O)CCC2CCCCC2)cc1 | inactive
7 | CCC(=O)N1c2ccccc2-c2nnc(SC)nc2OC1c1cc(OC)c(OC)cc1OC (configuration not stated) | inactive
8 | CC12CN3CC(C)(CN(C1)C3(C)c1ccccc1)C2=O (configuration not stated) | inconclusive: 17%
9 | Cc1ccc(-c2nccn2CCc2ccc(S(N)(=O)=O)cc2)o1 | inconclusive: 14%
10 | COC(=O)c1ccc(CNC(=O)CN2[C@@H]3CC[C@H]2CC(O)C3)o1 (some centres not stated) | inconclusive: 11%
11 | CCOC(=O)c1c(N)n(-c2ccc(C)cc2C)c2nc3ccccc3nc12 | inactive
12 | Cn1cc(C(NS(=O)(=O)c2ccc(Cl)cc2)C(Cl)(Cl)Cl)c2ccccc21 (configuration not stated) | inconclusive: 13%
13 | O=C(O)c1cc(-c2ccccc2)nc2c(Cl)cccc12 | inactive
14 | COc1ccc(CNC(=O)C[C@@H]2O[C@H](CNC(=O)c3ccccc3)[C@@H](O)[C@H]2O)cc1 | inconclusive: 20%
15 | CCOC(=O)C1=C(N)OC2=C(C(=O)CC(C)(C)C2)C1c1cc(OC)c(OC)c(OC)c1 (configuration not stated) | inconclusive: 21%
16 | CCc1ccccc1NC(=O)CCNC1CCSC1 (configuration not stated) | inactive
17 | C=CCNc1ccccc1C(=O)N(Cc1ccc2c(c1)OCO2)C1CC1 | inconclusive: 10%
18 | CS(=O)(=O)Nc1ccc([N+](=O)[O-])cc1Oc1ccccc1 | inconclusive: 15%
19 | COc1ccc2nc(SCC(=O)O)[nH]c2c1 | inconclusive: 20%
20 | N#Cc1nc(COc2ccc(Cl)cc2)oc1NCCN1CCOCC1 | inconclusive: 21%
21 | Cc1ccc(NC(=O)CN2C(=O)C(=O)c3ccccc32)cc1C | inactive
22 | CCc1c(C)sc(NC(=O)c2noc3c2CCCCC3)c1C#N | inconclusive: 15%
23 | Cc1ccc(-n2c(SCC(=O)Nc3cccc(F)c3)nc3c(c2=O)SCC3)cc1 | inconclusive: 29%

Row | SMILES | inhibition
24 | c1ccc2sc(C3CCCN(Cc4cc5n(n4)CCCNC5)C3)nc2c1 (configuration not stated) | inconclusive: 13%
25 | COc1cc(NS(=O)(=O)c2ccc(NC(=O)c3cccc(F)c3)cc2)ncn1 | inactive
26 | CCn1cc(C(=O)O)c(=O)c2cc(F)c(N3CCNC(C)C3)c(F)c21 (configuration not stated) | inconclusive: 10%
27 | O=C(c1cccs1)N1CCN(c2ccc([N+](=O)[O-])c(NC3CC3)c2)CC1 | inconclusive: 22%
28 | O=C(CCC1CCCN(Cc2ccc3nsnc3c2)C1)Nc1ccccc1F (configuration not stated) | inconclusive: 10%
29 | CCOc1ccc(C2=C/C(=C/c3ccccc3OC)C(=O)O2)cc1 | active: 46%
30 | CC(C)c1ccc(C2NC(=O)NC3=C2C(=O)CC(C)(C)C3)cc1 (configuration not stated) | inactive
31 | O=c1[nH]nc(Cc2cccnc2)n1Cc1ccc(Cl)cc1Cl | inconclusive: 11%
32 | NC(=O)c1c(C(F)(F)F)cc(-c2ccccc2)nc1NCCO | inconclusive: 14%
33 | O=C(NC1=NCCS1)c1cc(-c2ccc3c(c2)OCO3)nc2ccccc12 | inactive
34 | CCOC(=O)c1ccc(NC(=O)CSc2nc(C)nc3sc4c(c23)CCC4)cc1 | inconclusive: 11%
35 | O=C(CSc1nncc2ccccc12)Nc1ccc2c(c1)OCO2 | inactive
36 | COc1ccc(OC)c(C2C(C(=O)Nc3ccccn3)=C(C)NC3=C2C(=O)CC(C)(C)C3)c1 (configuration not stated) | inactive
37 | O=C(Nc1cnn(Cc2ccc(F)cc2)c1)c1cc(-c2cccs2)on1 | inconclusive: 10%
38 | COC[C@H]1CCCN1C(=O)[C@@H](C)C1CC[C@@]2(C)CC[C@H](NC(=O)Cc3ccccc3)[C@@H](C)[C@@H]2[C@H]1O (some centres not stated) | inconclusive: 18%
39 | CCCOC(=O)N1CC[C@@H](c2ccc3c(c2)OCO3)[C@H](O)C1 | inconclusive: 14%
40 | Cc1ccc(N2CN=C3SCC(=O)N3C2)cc1C | active: 37%
41 | CCCCS(=O)(=O)/C=C\C1[C@@H]2C=C[C@@H](C2)[C@H]1S(=O)(=O)CCCC (some centres not stated) | inactive
42 | Cc1ccc(Nc2cc(C)nc(N3CCN(S(=O)(=O)c4ccccc4F)CC3)n2)cc1 | inactive
43 | O=C(Cn1ccc2ccccc2c1=O)NCC(=O)Nc1ccc2c(c1)OCCO2 | inconclusive: 27%
44 | COc1ccc2nc(N3CCC(C(=O)N4CCN(c5ccccn5)CC4)CC3)sc2c1 | inconclusive: 10%
45 | O=C(c1ccc2c(c1)C1C=CCC1C(c1ccc([N+](=O)[O-])cc1)N2)N1CCCC1 (configuration not stated) | active: 40%
46 | COC(=O)c1ccc(Cc2ccc(C(=O)OC)o2)o1 | inconclusive: 10%

Row | SMILES | inhibition
47 | CC(=O)c1[nH]c(C)c(C(=O)N2CCC3(CN(C)C(=O)O3)C2)c1C (configuration not stated) | inconclusive: 13%
48 | C[C@]12C=CC(=O)C=C1CC[C@@H]1C2=CC[C@]2(C)[C@@H](C(=O)CN3CCN(c4cc(N5CCCC5)nc(N5CCCC5)n4)CC3)CC[C@@H]12 | inconclusive: 15%
49 | O=C1CCCN1CC(=O)N1CCOC(Cc2cccc3ccccc23)C1 (configuration not stated) | inconclusive: 11%
50 | O=C(C1CC1)N1CCC(Cn2cc(-c3ccccn3)nn2)CC1 | inactive
51 | COc1ccc(C(=O)O)cc1S(=O)(=O)Nc1ccccc1Cl | inactive
52 | COC(=O)c1ccccc1N1C(=O)C2C3CCC(C3)C2C1=O (configuration not stated) | inconclusive: 16%
53 | COc1ccc(S(=O)(=O)Nc2cc(C(C)C)c(O)c(C(C)C)c2)cc1 | inactive
54 | CSCC(=O)NCCC[C@H](NC(=O)[C@@H]1[C@@H](NC(=O)NC(C)C)CCN1C(=O)CSC)C(N)=O | inconclusive: 19%
55 | CC(NS(=O)(=O)c1ccccc1)C12CCC3CCC(CC(C3)C1)C2 (configuration not stated) | inactive
56 | COc1ccc(C)cc1NS(=O)(=O)c1cccc2cccnc12 | inconclusive: 13% and inconclusive: 11%
57 | CC(=O)N1c2c(cc(Br)cc2S(=O)(=O)NC2CCCCCC2)CC1C (configuration not stated) | inconclusive: 12%
58 | COc1cccc(CNC(=O)C2C3C=CC4(CN(Cc5ccccc5Cl)C(=O)C24)O3)c1 (configuration not stated) | inactive
59 | CN(C)c1ncc2c(n1)CCCC2NC12CC3CC(CC(C3)C1)C2 (configuration not stated) | inconclusive: 10%
60 | NC(=O)c1cc(S(=O)(=O)N2CCCCC2)ccc1F | inactive
61 | COc1cccc(-c2cc(N3CCN(S(=O)(=O)c4ccccc4C)CC3)ncn2)c1 | inconclusive: 10%
62 | FC(F)(F)C1CN(c2nnnn2-c2ccc(-c3ccccc3)cc2)CCO1 (configuration not stated) | inactive
63 | O=C(c1nn2c(c1Cl)NC(c1ccc(Br)cc1)CC2C(F)(F)F)N1CCCC1 (configuration not stated) | inconclusive: 25%
64 | Cc1ccc(-n2nnnc2SCc2ccccn2)cc1C | inconclusive: 16%
65 | O=C(CCn1ccc(=O)[nH]c1=O)N1CC(c2ccccn2)C1 | inactive
66 | Cc1ccc(NC(CC(=O)c2ccccc2)C(=O)O)cc1Cl (configuration not stated) | inconclusive: 27%
67 | COc1cc(OC)c(NC(=O)c2nn(-c3ccc(Cl)cc3)c(=O)c3ccccc23)cc1Cl | inconclusive: 16%
68 | CC(=O)N1CCC2(CC1)CC(=O)c1cc(OCC(=O)N3CCOCC3)ccc1O2 | inconclusive: 13%
69 | c1ccc(C(Cn2ccnc2-c2ccncc2)N2CCCCC2)cc1 (configuration not stated) | inconclusive: 11%

Row | SMILES | inhibition
70 | Cc1ccc(/C=C2\C(=O)Nc3ccc(Br)cc32)s1 | inconclusive: 22%
71 | COCC(=O)N1CCN2C(=O)N(Cc3ccccc3)C(=O)[C@H]2C1 | inconclusive: 12%
72 | Cc1ccc(Cl)cc1N1C(=O)C2C3CCC(C3)C2C1=O (configuration not stated) | inactive
73 | COc1ccc(NC(=O)CN2CCN(Cc3ccccc3C)S2(=O)=O)cc1OC | inactive
74 | CCOC(=O)c1c(NC(=O)CSc2nnc3ccccn23)sc(C)c1C | inconclusive: 20%
75 | COc1ccc(CNC(=O)C2CSC(c3cccs3)=N2)cc1 (configuration not stated) | inconclusive: 11%
76 | C(#CCSc1nnc(-c2ccncc2)o1)CSc1nnc(-c2ccncc2)o1 | inconclusive: 15%
77 | COc1cc(NS(=O)(=O)c2ccc(NC(=O)c3cccc(Cl)c3)cc2)nc(OC)n1 | inconclusive: 13%
78 | Cc1ccc(C2(O)CCN(C(=O)c3cnc(C(C)C)[nH]c3=O)CC2)nc1 | inconclusive: 14%
79 | COc1ccc(-n2ncc3c(Nc4ccc(C)c(Cl)c4)ncnc32)cc1 | inconclusive: 10%
80 | COc1cc2c(cc1OC)C(c1ccccc1)=NC1(CCCC1)C2 | inconclusive: 15%
81 | CCOc1ccc(Cc2c(O)nc[nH]c2=O)cc1 | inactive
82 | Cc1ccc[n+](C2C(c3ccc([N+](=O)[O-])cc3)C(C#N)=C([S-])NC2(O)C2CC2)c1 (configuration not stated) | active: 50%
83 | COc1ccc(NC(=O)Cn2c(=O)n(-c3ccc(C)c(F)c3)c(=O)c3sccc32)cc1Cl | inactive
84 | O=C(Nc1ccc(Cl)cc1[N+](=O)[O-])c1cccs1 | active: 33%
85 | Cc1ccc(S(=O)(=O)N2CCSC2c2ccc(Br)cc2)cc1 (configuration not stated) | active: 70%
86 | COc1ccc(-c2ccnc(N[C@H]3CO[C@H]4[C@@H]3OC[C@@H]4NC(C)=O)n2)cc1 | inconclusive: 10%
87 | COc1ccc(Cl)cc1S(=O)(=O)N1CCN(c2cc(-c3ccc(F)cc3)ncn2)CC1 | inactive
88 | CC(c1ccc(-c2ccc3sc(N)nc3c2)cc1)N1CCOCC1 (configuration not stated) | inactive
89 | Cc1[nH]nc2c1C(c1cccc(Br)c1)C1=C(CC(C)(C)CC1=O)N2 (configuration not stated) | inactive
90 | CC(C)C(NS(=O)(=O)c1cccs1)C(=O)Nc1cccc(C(F)(F)F)c1 (configuration not stated) | inactive
91 | CN(C)CC1(O)CCCN(C(=O)COc2cccc(F)c2)CC1 (configuration not stated) | inactive
92 | Cc1cc([N+](=O)[O-])ccc1NC(=O)C(Cc1ccccc1)N1C(=O)c2ccccc2C1=O (configuration not stated) | inactive
